Test results taken from patent US20200010413A1, “Benzoquinone derivatives for treatment of cancer and methods of making the benzoquinone derivatives” (United Arab Emirates University, priority 2016, published 2020).
Some entries repeat one wording, which the source may state once for all of them.

These molecules were tested on telomeric G-quadruplex DNA AGGG(TTAGGG)3 (assay: UV-Vis absorption titration, Scatchard plot and molar ratio method). Conditions: linear or nonlinear Scatchard plot.
Assay type: binding, human
Experimental: Telomeric G-quadruplex DNA was prepared by heating gently 2.0 ml of stock single stranded 5′-[…]-3′ DNA (SEQ ID NO: 1) up to 95.0° C. Resultant solution was incubated at 95.0° C. for 10 min. The solution was left to cool gently down to room temperature, then kept in fridge at 4.0° C. overnight before use. A 10^−5 M fluorescein labeled G-quadruplex DNA was prepared similarly using 5′-Flu-telomeric DNA.
Successive amounts of G-quadruplex DNA (AGGG(TTAGGG)3, 1.44×10^−4 M) were added to 1.00 ml of each BQ (5×10^−6 M) in Tris-KCl buffer, pH 7.4. Solution was shacked well after each addition, incubated for 3 min at room temperature and its absorbance was scanned in the range 200-600 nm. Titration was stopped when no change in absorbance was observed. The experiment was reversed by adding successive amounts of the each BQ (1×10^−3 M) to 1.0 ml of 4×10^−6 M G-quadruplex DNA.
The molar ratio method based on measuring UV-Vis absorption was used for determining stoichiometry of G-quadruplex DNA interactions with BQs. A 1.00 ml BQs (5×10^−6 M) was titrated with telomere G-quadruplex (1.44×10^−4 M) in Tris-KCl buffer, pH 7.4. The solution was shacked well after each addition, incubated for 3.0 min at room temperature and scanned in the range 200-600 nm. A plot of absorbance versus molar ratio [BQs]/[DNA] was constructed.
Binding affinity of the BQs towards telomere G-quadruplex DNA were estimated using Scatchard model based on the above UV-Vis absorption titration. Scatchard plot was constructed as
Wherein r is the number of moles of the BQ bound to one mole of telomere G-quadruplex DNA (Cb/[G-quadruplex DNA], Cf is the free BQ's concentration, n is number of equivalent binding sites per G-quadruplex molecule and K is the binding constant. The free and bound concentrations of BQ (Cf and Cb) are calculated using Cb=Ctotal−Cf, where Ctotal is the concentration of BQ at zero addition of G-quadruplex and Cf is calculated using Cf=Ctotal(1−α). The fraction of BQ bound to G-quadruplex (α) is calculated using
where Af, A and Ab are the absorbance at zero addition, after each addition and at saturation, respectively. Linear plots of
versus r give slope and intercept equals to K and n, respectively. For nonlinear plots, the modified Scatchard equation
was used. Plots of r against Cf were subjected to nonlinear fitting to get the values of K and n.

Type of binding sites, one type of binding sites:
O=C1C=C(Nc2cc(F)c(F)c(F)c2)C(=O)C=C1Nc1cc(F)c(F)c(F)c1 [BQ2, 2,5-bis-(3,4,5-trifluoroanilino)-1,4-benzoquinone]
O=C1C=C(Nc2ccc(F)cc2)C(=O)C=C1Nc1ccc(F)cc1 [BQ4, 2,5-bis-(4-fluoroanilino)-1,4-benzoquinone]
O=C1C=C(Nc2ccccc2)C(=O)C=C1Nc1ccccc1 [BQ5, 2,5-bis-anilino-1,4-benzoquinone]
O=C1C=C(NCCN2CCCC2)C(=O)C=C1NCCN1CCCC1 [BQ9, 2,5-bis((2-(pyrrolidin-1-yl)ethyl)amino)-1,4-benzoquinone]
O=C1C=C(NCc2ccc(C(F)(F)F)cc2)C(=O)C=C1NCc1ccc(C(F)(F)F)cc1 [BQ10, 2,5-bis-(4-trifluoromethylbenzylamino)-1,4-benzoquinone]
COc1ccc(CNC2=CC(=O)C(NCc3ccc(OC)c(OC)c3)=CC2=O)cc1OC [BQ12, 2,5-bis-(3,4-dimethoxybenzylamino)-1,4-benzoquinone]
